Data reported in the supplement of paper PMC3334620.
The full ranking holds about 33,000 sequences; the median of “E-score (-0.5 to 0.5)” is about -0.015, and the highest 2% start at about 0.3. Some of the results follow.

The sequences below were run against T1, Abf1 (UniProt P14164) (assay: PBM E-score (8-mer binding enrichment) (E-score (-0.5 to 0.5)); higher = stronger / more preferred TF binding). Settings: protein concentration: 200 nM; construct: GST-full length.
T1 sequence: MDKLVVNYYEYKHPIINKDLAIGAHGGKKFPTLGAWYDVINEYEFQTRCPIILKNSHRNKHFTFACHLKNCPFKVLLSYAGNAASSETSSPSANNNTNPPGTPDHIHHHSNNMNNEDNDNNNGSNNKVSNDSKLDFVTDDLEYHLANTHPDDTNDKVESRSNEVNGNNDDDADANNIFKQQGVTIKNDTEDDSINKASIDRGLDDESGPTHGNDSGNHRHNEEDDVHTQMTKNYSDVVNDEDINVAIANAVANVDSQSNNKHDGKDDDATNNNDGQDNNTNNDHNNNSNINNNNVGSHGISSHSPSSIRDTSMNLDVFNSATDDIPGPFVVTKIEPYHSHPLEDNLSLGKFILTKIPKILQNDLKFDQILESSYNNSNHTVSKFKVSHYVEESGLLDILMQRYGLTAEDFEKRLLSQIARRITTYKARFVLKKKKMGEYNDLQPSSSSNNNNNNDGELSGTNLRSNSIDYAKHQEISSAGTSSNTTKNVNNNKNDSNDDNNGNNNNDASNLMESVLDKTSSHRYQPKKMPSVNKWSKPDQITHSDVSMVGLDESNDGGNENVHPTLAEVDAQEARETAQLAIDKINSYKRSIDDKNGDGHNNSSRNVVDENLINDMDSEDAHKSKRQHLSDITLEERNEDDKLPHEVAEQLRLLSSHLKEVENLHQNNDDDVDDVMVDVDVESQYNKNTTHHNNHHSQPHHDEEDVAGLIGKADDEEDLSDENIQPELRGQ
Outline: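 Bound GST-tagged yeast transcription factors, applied at about 100-200 nM to double-stranded universal all-10-mer Agilent arrays, were detected with fluorescent anti-GST. Scans were normalised with masliner. A modified Wilcoxon-Mann-Whitney statistic, the E-score, was assigned to each ungapped eight-base word pooled with its reverse complement by the Universal PBM Analysis Suite.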

| Sequence | PBM E-score |
| --- | --- |
| CCACTGTC | -0.129 |
| AAGTGCGA | -0.122 |
| GCGTTTAA | -0.00471 |
| CCGCCTTC | -0.262 |
| CCCGAAGG | -0.143 |
| TGCTAGCA | 0.0679 |
| GCACACTA | -0.111 |
| CGCTTCTA | 0.115 |
| TAACACTA | 0.21 |
| ACCGGGAG | -0.135 |
| ATGTCTCC | -0.00691 |
| ACCAAAAC | 0.0329 |
| CGTGAAGA | 0.116 |
| CTGGACGC | -0.0835 |
| GAATATCA | 0.334 |
| AGGACCGG | -0.209 |
| GGACCGGA | -0.0591 |
| ATAAGATC | 0.153 |
| CACAACCG | -0.00582 |
| CAGATCCC | -0.155 |
| CCTTCTTA | -0.027 |
| GGCAGCCA | -0.171 |
| ATGGACGA | 0.26 |
| GCTCTAGA | -0.151 |
| CTACTTGA | -0.0709 |

| Sequence | PBM E-score |
| --- | --- |
| ATGTGGAC | 0.0328 |
| CTGTTACC | -0.136 |
| GCGTAGAC | -0.0682 |
| TCGACCAA | -0.126 |
| GTGGCGTA | -0.0944 |
| TATTCCAA | 0.108 |
| ACCGCCAA | -0.124 |
| CATTCTTA | 0.185 |
| AGGAACTG | -0.293 |
| ATGTTGTG | 0.0648 |
| ACCGGCGC | -0.0873 |
| GTGGAATA | -0.00804 |
| ACTCCGCG | -0.11 |
| GACGAGCA | 0.0707 |
| ACGACAGA | 0.308 |
| CGCCAAAA | -0.0534 |
| ACTTCGAC | 0.0389 |
| CATGCTGG | -0.109 |
| CTCTGATC | -0.00919 |
| ATCCAAGA | -0.0165 |
| TGAGATAA | 0.191 |
| CCGTGCTC | 0.187 |
| GGTATGAC | -0.0891 |
| ATATGTTC | 0.0482 |
| CCTCTGAA | -0.222 |

| Sequence | PBM E-score |
| --- | --- |
| CCTCGTCC | -0.0917 |
| ATAATCAC | 0.331 |
| TTACAAAA | 0.00518 |
| AAGCCGAT | 0.0822 |
| GGCCCAGA | -0.346 |
| CCTGCGGC | -0.271 |
| AAACCACC | -0.115 |
| ACTACCCA | -0.0214 |
| CCCCGGGA | -0.274 |
| AGAAGATC | 0.00278 |
| CCAGTGCA | -0.0128 |
| AGCAACAT | -0.115 |
| CCGAGCTC | 0.0661 |
| ACATAAAT | 0.172 |
| GGACTAAC | 0.0161 |
| CAGTCGAG | -0.177 |
| AGGTCATA | 0.00674 |
| AGCCTAAC | -0.156 |
| GCCCCACC | -0.318 |
| CAATCCGA | 0.0384 |
| AGTGGCCC | -0.198 |
| AAAGAATG | 0.2 |
| GACCTGGA | -0.0772 |
| AACCTCCT | -0.131 |
| CCGGAGTA | 0.175 |

| Sequence | PBM E-score |
| --- | --- |
| CTGCGTTC | -0.0469 |
| CATACCAA | -0.177 |
| AGACGATC | 0.113 |
| ACTGGGAC | -0.051 |
| GCACAGAA | 0.0128 |
| AACAACGT | 0.11 |
| GCACAGCA | 0.0353 |
| GGACCGTA | 0.108 |
| ATCGTCTG | 0.148 |
| CCCGCGGG | -0.00852 |
| ACGTGCCA | -0.181 |
| TATACTAA | 0.131 |
| ATATTCGG | 0.0544 |
| ATTTACGC | 0.0524 |
| GGCGGCCA | -0.191 |
| AAGTTTCA | 0.0531 |
| CGCACACA | -0.0281 |
| GGCGCCAA | 7e-05 |
| CGTCAGTC | 0.117 |
| GCTTGCTA | -0.179 |
| AGTTGAGA | -0.014 |
| CTGATAAA | 0.112 |
| ACCGAGTC | -0.224 |
| ACCGACAG | -0.269 |
| CCCGACCC | -0.197 |

| Sequence | PBM E-score |
| --- | --- |
| ACTATATA | 0.237 |
| CATGCTAC | -0.221 |
| GATAGCCA | -0.0722 |
| AGGCCCAG | -0.314 |
| TAACAGTA | 0.0116 |
| CTCGAACC | -0.235 |
| CACAGGAG | -0.0222 |
| CTGTGTGC | -0.137 |
| CGCTACGA | -0.0617 |
| CGTGCCCC | -0.249 |
| GCGAGCTA | 0.0665 |
| AGAGTAAA | -0.0681 |
| ACGTTACT | 0.205 |
| CATTGTCG | 0.132 |
| TCAAAGCA | 0.106 |
| AACACAAA | 0.0149 |
| ACAGTCAA | 0.0752 |
| ATGCGTCC | -0.0187 |
| GGACGCAA | -0.151 |
| ATAGTAAC | 0.0798 |
| CAGGCTAG | -0.296 |
| ACGCACGA | 0.389 |
| CTGTGAAA | 0.134 |
| ATAGTTCG | 0.106 |
| AAATTCCT | -0.165 |

| Sequence | PBM E-score |
| --- | --- |
| CGTGTCAG | 0.27 |
| GAAACTAC | 0.111 |
| CCTCCAGC | -0.322 |
| ATATACAT | 0.109 |
| AGGTATTG | 0.0691 |
| ACGACCTC | 0.227 |
| GAACACTA | 0.0777 |
| ATTGTTTA | 0.206 |
| CATTGTAG | -0.0418 |
| CTTGTTCC | -0.284 |
| GTACTATA | 0.145 |
| CCGAGACC | -0.279 |
| TTAATCAA | 0.0929 |
| AACTTACG | 0.134 |
| CAGGAAAC | 0.099 |
| GTGAAAAC | 0.138 |
| AGCGAAGC | -0.103 |
| CAAAAGCA | 0.0336 |
| AAGTTGAC | 0.0221 |
| CATCACCC | 0.279 |
| ACAGCGCT | -0.232 |
| GGAGCAAC | -0.141 |
| GGGAAACC | -0.12 |
| AAATCCGG | -0.0659 |
| GAACCGAA | 0.0912 |

| Sequence | PBM E-score |
| --- | --- |
| GGTGATAA | 0.404 |
| CGGGGCTC | -0.181 |
| AGGTAAAT | -0.0502 |
| CGAGGGGA | -0.09 |
| CGTTAATC | 0.163 |
| CTAAACAA | -0.0606 |
| ATCCCCCG | -0.0688 |
| ACCAACCT | -0.0713 |
| GCTATTAC | 0.0967 |
| ACAGTCTA | 0.013 |
| CCACTTGA | -0.162 |
| TAGCACTA | 0.0327 |
| GGATGCCA | -0.0872 |
| GGTCAGTA | -0.145 |
| GGGAATAC | 0.0905 |
| ACACATAC | -0.181 |
| AAAGTGGT | -0.0319 |
| ATCAAGCC | -0.0375 |
| CCGCGGGC | -0.252 |
| CTAAATGA | 0.191 |
| AAGCCCTC | -0.108 |
| TCATAAAA | 0.149 |
| ATTCATCG | 0.0813 |
| CGTGCCGC | 0.0341 |
| ACACTGAG | -0.0257 |

| Sequence | PBM E-score |
| --- | --- |
| ACTTGAAG | -0.101 |
| CAAAACGG | 0.0219 |
| GCTCTTCC | -0.24 |
| AAACCGAC | -0.0139 |
| ATCTCTGA | -0.0693 |
| CCTAACCG | -0.0664 |
| AATCCGAT | 0.118 |
| CAGAAACA | -0.0715 |
| GCAAACTA | -0.0507 |
| ACACCTAA | -0.0285 |
| AGCGGTTC | -0.215 |
| ACGGAATG | 0.201 |
| CCAGTGTC | -0.09 |
| GGACTGAA | -0.181 |
| AAACCAGA | -0.161 |
| ACGGGGAA | 0.039 |
| ACAGATGA | -0.0461 |
| AACACCCT | -0.0765 |
| ATTGGTAA | 0.0216 |
| GCGTGGCC | -0.202 |
| AGCGATGC | -0.0615 |
| CGGCCTTA | 0.113 |
| ACAAGTGC | -0.0568 |
| CTCGAGCA | 0.0548 |
| AGAATCAT | -0.0649 |

A few values from above.
Entry of CCTAACCG under PBM E-score: -0.0664
Entry of ACGGGGAA under PBM E-score: 0.039
Entry of CTCGAGCA under PBM E-score: 0.0548
Entry of AACACCCT under PBM E-score: -0.0765
Entry of AGCGATGC under PBM E-score: -0.0615

More results follow:

| Sequence | PBM E-score |
| --- | --- |
| CTTCATCC | -0.0431 |
| ATCACTGA | 0.205 |
| CTACTGCA | -0.18 |
| ATCGTCAG | 0.154 |
| CAGTCAGG | -0.242 |
| CGCCTGTC | -0.135 |
| GAAATATA | 0.137 |
| CAAGAGAG | 0.0634 |
| GTCGAGGA | 0.12 |
| ACCATGCC | -0.0871 |
| AACCACAG | -0.111 |
| TAGATACA | -0.0265 |
| AAGGCGTC | -0.118 |
| GCCGTACC | 0.356 |
| ACGAAATA | 0.147 |
| CAGGCCGG | -0.192 |
| CCTGCCCA | -0.197 |
| CCGTGGAG | -0.0764 |
| CAGTCCGA | -0.0199 |
